Patent US20210015793A1, “COMPOUNDS FOR TREATING CNS- AND NEURODEGENERATIVE DISEASES” (ETH ZURICH, priority 2018, published 2021)
Some results were stated once for a whole list of compounds, not compound by compound.

Test: 28-day repeated oral dosing safety in German shepherd dogs
Format: in vivo, dog
Conditions: for time for sedation to disappear after cessation of drug intake: 200 mg; for no-observed-adverse-effect-level (NOAEL): if sedation is not a desired side effect
Method: Dog serum concentrations of Compound-1, Compound-1F and Compound-4 were determined with serum isolated from the blood of German shepherd dogs (age: 8-9 months) taken at different time points (2 h, 4 h, 6 h, 8, 10 h, 24 h) after oral drug intake. The steady-state serum concentrations of Compound-1, Compound-1F and Compound-4 were determined in mice with blood isolated at the end of the study by cardiac puncture. Serum proteins were removed by acetonitrile precipitation, and compounds were extracted by chloroform before separation on an HPLC-C18 column (Poroshell 120 EC-C18, Agilent) with an HPLC system (Agilent 1100 Series) and detection at OD 280 nm, for Compound-1 and Compound-1F. Detection of Compound-4 was performed at OD 310 nm. The same extraction method was also used to determine Compound-1F in the serum of healthy human research participants. Dog hematology and biochemical parameters were determined by the Center of Applied Analytical and Veterinary Studies, Cairo, Egypt. ECG and blood pressure were measured by Dr. Mohamed Elsaed, Electrocardiography Unit, Faculty of Veterinary Medicine, Cairo University. The study was approved by the ethical committee of the Center of Applied and Veterinary Studies, Cairo, Egypt. Clinical laboratory parameters of human research participants were determined by the Rabaa El Adaweya Medical Central Hospital, Cairo, Egypt.

Row | Structure (SMILES) | time for sedation to disappear after cessation of drug intake [h] | no-observed-adverse-effect-level (NOAEL) [mg/day]
1 | O=C(C1=C(O)C(c2ccccc2)N(c2ccc3c(c2)OCO3)C1=O)C1CC1 (stereo not shown) [Compound-1, 1-(1,3-benzodioxol-5-yl)-4-(cyclopropane-carbonyl)-3-hydroxy-2-phenyl-2H-pyrrol-5-one] | ≤ 24 | ≤ 200
2 | O=C(C1=C(O)C(c2ccc(F)cc2)N(c2ccc3c(c2)OCO3)C1=O)C1CC1 (stereo not shown) [Compound-1F, 1-(1,3-Benzodioxol-5-yl)-4-(cyclopropanecarbonyl)-2-(4-fluorophenyl)-3-hydroxy-2H-pyrrol-5-one] | ≤ 24 | ≤ 200
